Data as given in publication PMC12907299.
Results are given in words; binding and its absence hold for the method and conditions named. Binding can be weak; no strength is given.

How the values were obtained:
[1] = target: T1, AtARF7 (Arabidopsis thaliana) (UniProt P93022); assay: two-hybrid; GAL4 system; BnaREM as prey (pGAD, activation domain) against AtARF7 and AtARF19 as bait (pGBK, DNA-binding domain); medium lacking Ade, His, Trp and Leu with 100 mM 3-AT
T1 sequence: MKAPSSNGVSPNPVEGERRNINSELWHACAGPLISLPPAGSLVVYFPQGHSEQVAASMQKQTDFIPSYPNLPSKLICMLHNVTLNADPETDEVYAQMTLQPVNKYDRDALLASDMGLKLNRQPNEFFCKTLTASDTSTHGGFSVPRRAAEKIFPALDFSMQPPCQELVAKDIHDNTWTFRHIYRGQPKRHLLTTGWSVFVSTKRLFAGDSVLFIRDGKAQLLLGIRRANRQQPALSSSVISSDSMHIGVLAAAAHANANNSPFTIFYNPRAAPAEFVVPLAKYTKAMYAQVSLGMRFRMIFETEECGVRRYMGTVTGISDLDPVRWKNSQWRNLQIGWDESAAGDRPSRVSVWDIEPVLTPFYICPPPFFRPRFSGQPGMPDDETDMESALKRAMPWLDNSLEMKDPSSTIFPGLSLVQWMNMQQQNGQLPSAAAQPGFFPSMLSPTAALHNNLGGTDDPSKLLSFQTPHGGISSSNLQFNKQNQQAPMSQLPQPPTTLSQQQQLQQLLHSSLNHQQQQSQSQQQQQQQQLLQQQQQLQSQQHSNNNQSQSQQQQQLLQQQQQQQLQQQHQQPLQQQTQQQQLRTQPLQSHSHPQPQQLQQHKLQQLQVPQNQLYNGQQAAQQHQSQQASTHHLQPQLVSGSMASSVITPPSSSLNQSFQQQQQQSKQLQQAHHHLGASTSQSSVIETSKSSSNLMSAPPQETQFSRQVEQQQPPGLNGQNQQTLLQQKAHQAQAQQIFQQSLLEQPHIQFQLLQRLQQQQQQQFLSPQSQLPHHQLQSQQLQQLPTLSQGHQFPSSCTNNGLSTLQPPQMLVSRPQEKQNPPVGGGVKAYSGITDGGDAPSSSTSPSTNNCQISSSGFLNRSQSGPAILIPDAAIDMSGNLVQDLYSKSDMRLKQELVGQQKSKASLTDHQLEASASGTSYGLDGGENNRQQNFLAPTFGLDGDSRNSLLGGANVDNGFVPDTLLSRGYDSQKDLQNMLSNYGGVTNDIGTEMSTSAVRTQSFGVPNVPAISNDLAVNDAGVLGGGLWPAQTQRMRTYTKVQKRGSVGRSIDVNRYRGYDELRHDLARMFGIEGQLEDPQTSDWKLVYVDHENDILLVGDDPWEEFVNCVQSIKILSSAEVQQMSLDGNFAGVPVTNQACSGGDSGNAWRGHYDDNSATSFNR

[2] = target: T2, AtARF19 (Arabidopsis thaliana) (UniProt Q8RYC8); assay: as above
T2 sequence: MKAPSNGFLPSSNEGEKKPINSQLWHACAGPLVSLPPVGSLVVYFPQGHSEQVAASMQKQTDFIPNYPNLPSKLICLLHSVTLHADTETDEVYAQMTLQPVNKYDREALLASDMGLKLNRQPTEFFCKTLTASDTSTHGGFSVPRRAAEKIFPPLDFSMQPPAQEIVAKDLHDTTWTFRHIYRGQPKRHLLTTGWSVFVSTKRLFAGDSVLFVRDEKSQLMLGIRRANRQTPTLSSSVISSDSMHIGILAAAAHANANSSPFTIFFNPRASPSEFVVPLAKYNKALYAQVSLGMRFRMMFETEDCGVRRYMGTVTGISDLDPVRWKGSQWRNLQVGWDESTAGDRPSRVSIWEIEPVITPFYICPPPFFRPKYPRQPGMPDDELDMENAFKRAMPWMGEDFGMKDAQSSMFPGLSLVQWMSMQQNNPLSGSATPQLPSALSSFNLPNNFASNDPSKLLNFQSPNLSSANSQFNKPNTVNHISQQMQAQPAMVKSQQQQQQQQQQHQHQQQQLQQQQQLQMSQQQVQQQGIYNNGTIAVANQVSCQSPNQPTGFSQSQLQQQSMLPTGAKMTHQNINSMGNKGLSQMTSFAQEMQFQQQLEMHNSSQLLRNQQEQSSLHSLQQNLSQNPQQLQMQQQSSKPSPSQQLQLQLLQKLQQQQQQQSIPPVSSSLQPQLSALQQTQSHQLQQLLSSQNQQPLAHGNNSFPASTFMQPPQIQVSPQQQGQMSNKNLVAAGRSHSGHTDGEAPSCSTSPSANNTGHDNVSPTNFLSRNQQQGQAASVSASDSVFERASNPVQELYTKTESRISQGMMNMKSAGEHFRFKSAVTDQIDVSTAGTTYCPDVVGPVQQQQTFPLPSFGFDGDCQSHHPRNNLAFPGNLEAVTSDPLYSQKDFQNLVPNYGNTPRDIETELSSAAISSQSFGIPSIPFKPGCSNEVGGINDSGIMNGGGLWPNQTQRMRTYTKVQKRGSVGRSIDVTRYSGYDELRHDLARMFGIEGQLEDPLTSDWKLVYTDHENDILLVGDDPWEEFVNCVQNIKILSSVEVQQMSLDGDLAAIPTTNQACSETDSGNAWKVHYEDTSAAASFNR

Row | binding [1] | binding [2] | Substance
1 | no binding | binds | BnaREM34-A1 (Brassica napus)
2 | no binding | binds | BnaREM34-A3 (Brassica napus)
3 | binds | binds | BnaREM35/REM36-A1 (Brassica napus)
4 | no binding | binds | BnaREM37-A1 (Brassica napus)
